Our source for the binding values is publication PMC12375585.

The chains behind the UniProt entries cited, without tags or fusion partners.
UniProt P11142: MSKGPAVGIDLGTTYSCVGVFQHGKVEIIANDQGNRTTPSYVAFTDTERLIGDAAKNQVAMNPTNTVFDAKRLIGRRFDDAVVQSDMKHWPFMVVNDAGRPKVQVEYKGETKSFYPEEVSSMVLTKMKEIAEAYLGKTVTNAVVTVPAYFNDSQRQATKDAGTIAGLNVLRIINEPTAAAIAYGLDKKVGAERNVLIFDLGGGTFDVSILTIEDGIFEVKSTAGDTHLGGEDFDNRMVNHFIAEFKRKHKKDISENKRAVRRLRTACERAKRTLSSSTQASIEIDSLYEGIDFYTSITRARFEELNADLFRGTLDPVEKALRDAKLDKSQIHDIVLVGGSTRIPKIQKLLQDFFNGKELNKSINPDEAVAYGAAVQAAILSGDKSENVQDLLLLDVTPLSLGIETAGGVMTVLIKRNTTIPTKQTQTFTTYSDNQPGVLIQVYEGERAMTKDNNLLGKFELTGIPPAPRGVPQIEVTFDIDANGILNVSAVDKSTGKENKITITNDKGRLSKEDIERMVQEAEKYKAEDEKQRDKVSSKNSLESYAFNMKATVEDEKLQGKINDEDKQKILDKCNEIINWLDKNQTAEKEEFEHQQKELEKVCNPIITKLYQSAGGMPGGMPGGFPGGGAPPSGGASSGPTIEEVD

For this experiment, the target named is T1, Flag-tagged full-length GPATCH3 (G-Patch Domain Containing 3) (human) (UniProt Q96I76).
T1 sequence: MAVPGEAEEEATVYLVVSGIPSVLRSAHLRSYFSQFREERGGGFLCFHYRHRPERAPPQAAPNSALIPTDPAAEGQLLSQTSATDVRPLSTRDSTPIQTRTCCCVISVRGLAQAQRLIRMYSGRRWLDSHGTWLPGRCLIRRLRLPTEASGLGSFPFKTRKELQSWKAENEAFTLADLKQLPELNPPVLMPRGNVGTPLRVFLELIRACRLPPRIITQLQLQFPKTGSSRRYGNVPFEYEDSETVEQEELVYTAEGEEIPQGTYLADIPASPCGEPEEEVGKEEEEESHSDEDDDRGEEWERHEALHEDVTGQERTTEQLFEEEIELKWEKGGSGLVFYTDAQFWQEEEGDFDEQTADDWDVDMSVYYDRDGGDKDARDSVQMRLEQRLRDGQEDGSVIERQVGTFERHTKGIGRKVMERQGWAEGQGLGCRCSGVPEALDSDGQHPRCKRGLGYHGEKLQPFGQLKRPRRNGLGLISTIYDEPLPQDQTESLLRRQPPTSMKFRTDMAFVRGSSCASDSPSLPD
Nature of the experiment: co-IP; Flag-tagged GPATCH3 (full length or truncation mutants) expressed in HEK293T; lysate (25 mM Tris-HCl pH 7.4, 150 mM NaCl, 1% NP-40, 1 mM EDTA, 1 mM EGTA) on anti-Flag M2 magnetic beads, 4°C, 4 h; eluted with 3× Flag peptide; immunoblotting.

These are yes or no findings as the source states them, for the method shown. In cells and extracts the contact can be indirect. Some entries that bind do so weakly or less than the wild type. Tags and fused reporters may be left off the sequences shown.

Regarding “HSPA8, endogenous (from UniProt P11142 1-646)”, the binding entry is on record as “binds”.
